The values that follow come from PubChem BioAssay AID2685 (National Center for Advancing Translational Sciences (NCATS), 2010).

A short description of the assay: qHTS Assay for Lipid Storage Modulators in Drosophila S3 Cells.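 On cell number change: cells counted by Cell Tracker Red CMTPX staining in the red channel.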 To be noted: BODIPY lipid droplet fluorescence, 18-24 h; for cell number change: measured here: cell count max response, cells fed with added oleic acid. In outline: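 Drosophila S3 cells got compounds at several concentrations plus oleic acid (400 uM solution). Laser-scanning cytometry with 488 nm excitation read lipid droplets at 500-530 nm and cells at 575-640 nm. Percent activity was relative to 20 uM Triacsin C.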
Background: In qHTS, concentration-response curves come from the screen itself.

Setting [1] is: measured here: lipid fluorescence (Fed channel) AC50, cells fed with added oleic acid.
[2] abbreviates: measured here: cell number channel AC50, cells fed with added oleic acid.

This is one part of the list. Shown are side measurements of this screen, not its main read-out; they come without a call. Compounds called inactive in the main read-out are mostly missing here. Potencies come from curve fits of mixed quality, noted in brackets.

For `CC(C)c1cc(NC(=O)CSc2nnc(-c3ccccc3F)n2C)on1`, the cell number change is -7.17%. Under setting [1], the AC50 (in general, the concentration giving half of the maximal activity seen) is 2.06 µM [falling, partial curve].
Take `CCOc1ccc(C(=O)CN2CCN(S(=O)(=O)c3ccc(Br)cc3)CC2)cc1`: the cell number change came to 47.5%. The AC50 under setting [2] is 29.1 µM [rising, single point].
For the compound `CCN(CC)CCC(=O)Nc1cccc2c1C(=O)c1ccccc1C2=O`, the cell number change is -38.9%. In addition, the half-maximal activity concentration (AC50) under setting [1] is 13 µM [falling, partial curve].
Consider `CCOc1ccccc1-c1n[nH]c(=S)o1`, for which, under setting [1], the AC50 is 0.92 µM [falling, full curve].
As for `COc1ccc(CCNC(=O)c2ccccc2NS(=O)(=O)c2c(F)cccc2F)cc1`, the cell number change came out at 3.95%.
On to `Cc1cccc(C)c1NC(=O)COC(=O)c1ccccc1O`, for which the cell number change came out at 13.8%. Further, the half-maximal activity concentration (AC50) under setting [1] is 0.103 µM [rising, partial curve, poor fit].
As for `FC(F)(F)c1cc(-c2ccco2)nc(NCc2ccc(Cl)cc2)n1`, the cell number change was -24.4%. Moreover, the half-maximal activity concentration (AC50) under setting [1] is 6.51 µM [rising, full curve].
Consider `COc1ccc(NC2CCCN(C(=O)Cn3ccc(C)n3)C2)cc1OC` (stereo not drawn), for which the cell number change was determined as 1.36%.
The same measure, in the same setting: then `COc1ccc(Cn2c(=O)[nH]c3cc(C(=O)NCCCN4CCCCCC4)ccc3c2=O)cc1`, with 70.6%.
As for `Cc1cccc(N2CN(Cc3ccco3)CNC2=S)c1C`, the cell number change is 14%. For the same compound, the AC50 under setting [1] was 20.6 µM [rising, single point].
Take `Cc1cc(N2CCOCC2)nc(SCC(=O)OCc2ccccc2)n1`: the cell number change was found to be 21%. The AC50 under setting [1] is 32.6 µM [rising, single point].
Regarding `Cc1ccc(C(O)Cn2nc(C)cc2C)cc1` (stereo not drawn), the cell number change was -19.3%. Moreover, the AC50 under setting [1] was 0.411 µM [rising, full curve, poor fit].
As to `O=C(COc1ccc(Cl)cc1)NCc1nnc(SCC(=O)Nc2ccccc2)o1`, the concentration at half-maximal activity (AC50) reads like this: under setting [2], 6.51 µM [falling, single point]; under setting [1], 6.51 µM [falling, single point].
As to `COc1ccc(NC(=O)COc2ccc(N(C)S(=O)(=O)c3ccc(Cl)cc3)cc2)cc1`, the cell number change was -24.6%. Besides, the concentration at half-maximal activity (AC50) under setting [1] was 1.84 µM [rising, partial curve].
For `O=C(O)CC12CC3CC(C1)CC(n1ncc(NCc4ccc(F)cc4Cl)c(Cl)c1=O)(C3)C2`, the cell number change was -16%. Further, under setting [2], the concentration at half-maximal activity (AC50) is 0.461 µM [falling, full curve, poor fit].
Regarding `CCCc1cc(=O)oc2c(C)c(OCC(=O)N3CCC[C@@H]3C(=O)O)ccc12`, the cell number change was determined as 24.3%. In addition, under setting [2], the AC50 was 0.146 µM [rising, full curve, poor fit].
As for `O=C(O)c1c2c(nc3ccccc13)/C(=C/c1cccc([N+](=O)[O-])c1)CCC2`, the cell number change is 10.5%. In addition, the AC50 under setting [1] was 29.1 µM [rising, single point].
Regarding `CC(OC(=O)c1ccccn1)C(=O)Nc1ccc(C(F)(F)F)cc1` (stereo not drawn), the cell number change was -12%.
On to `COc1c(OC2OC(C(=O)O)C(O)C(O)C2O)cc(O)c2c(=O)cc(-c3ccccc3)oc12` (stereo not drawn), for which the cell number change was 1.98%. The AC50 under setting [1] is 18.4 µM [rising, single point].
For `CC(C)(C)NC(=O)COC(=O)c1ccc(S(=O)(=O)N2CCCC2)cc1`, the cell number change is -110%. Also, the AC50 under setting [1] is 29.1 µM [falling, single point].
For the compound `COc1ccc(/C=C2\SC(=S)N(NS(=O)(=O)c3ccc(C)cc3)C2=O)c(OC)c1`, the cell number change is -14.4%. The AC50 under setting [1] was 20.6 µM [rising, single point].
As to `Cc1ccc2c(c1)c1c(n2CC(O)CN2CCOCC2)CCCC1` (stereo not drawn), the cell number change is 15%.
On to `O=C(O)CCn1c(-c2ccccc2)cc2c1CCCC2=O`, for which the cell number change was 31%. Further, under setting [2], the concentration at half-maximal activity (AC50) is 13 µM [rising, single point].
`CC(C)(Cc1ccc(O)cc1)NC(=O)CC(=O)N=Nc1c(O)[nH]c2cc(Br)ccc12`: the cell number change was -1.56%. For the same compound, the AC50 under setting [1] was 0.0058 µM [falling, full curve, poor fit].
For `FC(F)(F)C(F)(F)c1nnc2ccc(-n3ccnc3)nn12`, the cell number change worked out at 18.6%. Besides, the half-maximal activity concentration (AC50) under setting [2] is 3.26 µM [rising, single point]. For the same compound, the AC50 under setting [1] was 6.51 µM [rising, single point].
Regarding `Cc1ccc([N+](=O)[O-])cc1NC(=O)c1ccoc1C`, the cell number change was -1.38%. Under setting [1], the concentration at half-maximal activity (AC50) is 4.11 µM [rising, full curve, poor fit].
Take `CC1CCN(C(=O)CSCC(=O)Nc2nc(-c3cccs3)cs2)CC1`: the cell number change is -14.2%. Further, the AC50 under setting [1] is 10.3 µM [falling, partial curve, poor fit].
With `O=C(Nc1c(C(=O)N2CCOCC2)cnn1-c1ccccc1)c1ccc([N+](=O)[O-])cc1`, the cell number change was -33.7%. The AC50 under setting [2] is 32.6 µM [falling, single point].
On to `COc1ccc(/C=C2\N=C(C)N(c3ccc4ccccc4c3)C2=O)cc1OC`, for which, under setting [1], the concentration at half-maximal activity (AC50) is 32.6 µM [falling, single point].
Turning to `NS(=O)(=O)c1cccc(NC(=O)COC(=O)Cc2ccc(S(=O)(=O)N3CCCCC3)s2)c1`, the cell number change is -30.6%. Moreover, the AC50 under setting [2] is 9.2 µM [falling, single point]. The half-maximal activity concentration (AC50) under setting [1] is 2.06 µM [falling, partial curve].
In the case of `CC(C)Oc1cccc(C(=O)Nc2ccccc2N2CCOCC2)c1`, the cell number change is 25.1%. In addition, the half-maximal activity concentration (AC50) under setting [1] is 8.2 µM [rising, partial curve].
With `COc1ccc(C(=O)N/N=C(/C)c2cccc(NC(=O)c3ccccc3F)c2)cc1`, the cell number change is -27%. Further, the concentration at half-maximal activity (AC50) under setting [1] was 8.2 µM [falling, single point].
For the compound `COc1ccccc1C(=O)COC(=O)c1ccccc1O`, the cell number change amounted to 4.24%.
In the case of `COC(=O)[C@@H](Cc1c[nH]c2ccccc12)NC(=O)CCC(=O)c1ccc(F)cc1`, the cell number change turned out to be 7.91%.
Regarding `CCOC(=O)c1ccc(NC(=O)Nc2ccc(Cl)cn2)cc1`, the cell number change was -20.1%. Besides, the AC50 under setting [1] is 4.61 µM [falling, full curve].
For the compound `Cc1c(C#N)c2ccccc2n1CC(=O)NCc1cccnc1`, the cell number change was 31.5%. In addition, the half-maximal activity concentration (AC50) under setting [2] is 11.6 µM [rising, partial curve]. Besides, under setting [1], the AC50 is 1.84 µM [falling, partial curve].
In the case of `O=C(Nc1ccc(S(=O)(=O)Nc2ncccn2)cc1)c1nn(Cc2ccccc2)c(=O)c2ccccc12`, the cell number change worked out at 10.4%.
For `C=CCN(C(=O)CCC(=O)Nc1cc(C)on1)C(C(=O)NC1CCCC1)c1cccnc1` (stereo not drawn), the cell number change was -13.6%. Moreover, the AC50 under setting [1] is 0.651 µM [rising, full curve].
For the compound `CCN(CC)C(=S)Nc1ccc([N+](=O)[O-])cc1`, the cell number change is -16.7%. Also, the half-maximal activity concentration (AC50) under setting [2] is 0.58 µM [falling, single point].
Regarding `CCOC(=O)c1c(CN2CCN(C)CC2)oc2ccc(OC)cc12`, the cell number change amounted to 16.5%. Also, the concentration at half-maximal activity (AC50) under setting [1] is 20.6 µM [rising, single point].
With `COc1cc(C(=O)N/N=C(\C)c2ccc3c(c2)OCO3)cc(OC)c1OC`, the cell number change is 65.1%. Besides, the AC50 under setting [2] was 6.51 µM [falling, single point].
Regarding `Cn1c(=O)c2c(nc(NCc3ccco3)n2CCc2ccccc2)n(C)c1=O`, the half-maximal activity concentration (AC50) under setting [1] was 9.2 µM [falling, partial curve].
With `Cc1ccc(F)cc1NC(=O)CCOc1ccccc1`, the cell number change is -10.3%. Under setting [2], the concentration at half-maximal activity (AC50) was 0.411 µM [rising, full curve]. In addition, under setting [1], the concentration at half-maximal activity (AC50) is 1.03 µM [rising, full curve].
Turning to `O=C(CCCCCN1C(=O)c2cccc([N+](=O)[O-])c2C1=O)Nc1ccccc1F`, the cell number change is -13.2%.
`O=C(COc1cccc2ccccc12)NNC(=O)c1cccs1`: the cell number change came out at 10.8%.
Consider `COc1cccc(C(=O)COc2ccc3c(C)c(Cc4ccccc4)c(=O)oc3c2)c1`, for which the cell number change was -12.7%. In addition, under setting [2], the half-maximal activity concentration (AC50) is 0.58 µM [rising, single point]. The half-maximal activity concentration (AC50) under setting [1] is 32.6 µM [rising, single point].
On to `O=C(CN1C(=O)NC2(CCCCC2)C1=O)Nc1nc2c(F)cc(F)cc2s1`, for which the cell number change came out at 13.5%.
As for `COc1ccc(CN(C)CC(=O)Nc2ccccc2-c2ccccc2)c(OC)c1`, the cell number change is -23.9%.
Take `COc1ccccc1N(C)S(=O)(=O)c1ccc(C(=O)NC(C)c2ccccc2)cc1` (stereo not drawn): the cell number change was -2.2%. For the same compound, under setting [1], the AC50 was 5.8 µM [rising, single point].
For the compound `CCOC(=O)CSC1=NC(=O)/C(=C/c2ccc(OC)cc2)S1`, the cell number change was -22.4%. For the same compound, the AC50 under setting [1] is 29.1 µM [falling, single point].
As for `COc1cccc(CN2CCN(c3nc4nonc4nc3NC3CC3)CC2)c1`, the cell number change was 5.85%. In addition, under setting [1], the AC50 is 6.51 µM [falling, single point].
As for `CCC1Oc2ccc(Cl)cc2N(CC(=O)O)C1=O` (stereo not drawn), the cell number change was -22.7%. Also, the AC50 under setting [1] is 0.82 µM [falling, single point].
As for `CCOc1ccc2nc(NC3=NC(c4ccc(OC)cc4)CC(=O)N3)nc(C)c2c1` (stereo not drawn), the cell number change was -14%. In addition, the half-maximal activity concentration (AC50) under setting [1] was 29.1 µM [falling, single point].
As for `CCn1c(CSc2nc3ccccc3[nH]2)n[nH]c1=S`, under setting [1], the half-maximal activity concentration (AC50) was 0.82 µM [falling, full curve].
On to `O=c1[nH]nc(CNc2ccc(C(F)(F)F)cc2)c2ccccc12`, for which the AC50 under setting [1] was 0.58 µM [falling, single point].
With `CCOc1ccc2oc(C(=O)OCC(=O)N3CCCC(C)C3)c(C)c2c1` (stereo not drawn), the cell number change turned out to be 8.4%. Besides, under setting [1], the concentration at half-maximal activity (AC50) is 0.366 µM [falling, partial curve, poor fit].
`CC(Oc1ccc2c(c1)oc(=O)c1ccccc12)C(=O)NCC1CCC(C(=O)O)CC1` (stereo not drawn): the cell number change is -12%.
As to `COc1cccc(CNC(=O)CN2C(=O)COc3ccc(S(=O)(=O)N4CCCCC4)cc32)c1`, the cell number change was -37.3%. For the same compound, the AC50 under setting [1] was 5.17 µM [rising, single point].
Turning to `COc1cccc(NC(=O)CCC(=O)Nc2cc(OC)c(NC(=O)c3cccs3)cc2OC)c1`, the cell number change was -17.3%. The AC50 under setting [1] was 20.6 µM [falling, partial curve].
As to `CCCOc1ccc(C2C(C(=O)c3ccc(C)o3)=C(O)C(=O)N2Cc2cccnc2)cc1` (stereo not drawn), the cell number change is -4.61%. Also, the AC50 under setting [1] is 0.00517 µM [falling, full curve, poor fit].
With `O=C(Nc1ccc(S(=O)(=O)N2CCCC2)cc1)C1CC(=O)N(c2ccc(F)cc2)C1` (stereo not drawn), the cell number change was 1.9%. Besides, the AC50 under setting [2] was 0.13 µM [rising, full curve, poor fit].
With `CCOC(=O)C1CCN(C(=O)CC(C)S(=O)(=O)c2ccc3c(c2)NC(=O)CO3)CC1` (stereo not drawn), the cell number change is -20%. The AC50 under setting [1] was 0.184 µM [rising, full curve].
On to `O=C(CSc1nc(C2CC2)nc2ccccc12)Nc1cccc(O)c1`, for which the cell number change came to 21.3%. Under setting [1], the AC50 was 29.1 µM [falling, single point].
